Earlier results, collected in patent US5693608A, “Method of administering a biologically active substance” (Bechgaard International Research and Development A/S, priority 1990, dated 1997).

Conditions: rats, cited from earlier work

Q: Which “time to plasma peak concentration” value (nasal gel (carbopol in PEG 400)) does the source give for `COC(=O)C1=C(C)NC(C)=C(C(=O)OC)C1c1ccccc1[N+](=O)[O-]` [nifedipine] here?
A: > 30 min

Q: What about the “bioavailability (in words)” value (nasal gel versus peroral) of the same molecule?
A: higher bioavailability of nifedipine than after peroral administration
